Test results published in US20200339700A1 (Bristol-Myers Squibb, published 2020).

B1: 12D6-24-L4H4 (antibody, human IgG1, V domains shown)
VH: QVQLVQSGAEVKKPGASVKVSCKASGYTFTGYNMNWVRQAPGQGLEWMGNIDPYYGNTNYNQKFKGRTTLTADTSTSTAYMELSSLRSDDTAVYYCARLGLQLYALDYWGQGTLVTVSS
VL: DIVLTQSPDSLAVSLGERATINCRASQSLVHSNANTYLHWYQQKPGQPPKLLIYKLTNRFFGVPDRFSGSGSGTDFTLTISSLQAEDVAVYYCQQSIHVPWTFGQGTKLEIK
B2: 12D6-24 variant L4H2 (antibody, human IgG1, V domains shown)
VH: QVQLVQSGAEVKKPGSSVKVSCKASGYTFTGYNMNWVRQAPGQGLEWMGNIDPYYGNTNYNQKFKGKTTLTADKSTSTAYMELSSLRSDDTAVYYCARLGLQLYALDYWGQGTLVTVSS
VL: DIVLTQSPDSLAVSLGERATINCRASQSLVHSNANTYLHWYQQKPGQPPKLLIYKLTNRFFGVPDRFSGSGSGTDFTLTISSLQAEDVAVYYCQQSIHVPWTFGQGTKLEIK
B3: 12D6-24-L4H1 (antibody, human IgG1, V domains shown)
VH: QVQLVQSGAEVKKPGASVKVSCKASGYTFTGYNMNWVRQAPGQGLEWMGNIDPYYGNTNYNQKFKGRVTMTTDTSTSTAYMELRSLRSDDTAVYYCARLGLQLYALDYWGQGTTVTVSS
VL: DIVLTQSPDSLAVSLGERATINCRASQSLVHSNANTYLHWYQQKPGQPPKLLIYKLTNRFFGVPDRFSGSGSGTDFTLTISSLQAEDVAVYYCQQSIHVPWTFGQGTKLEIK
B4: 12D6-24 variant L1H4 (antibody, human IgG1, V domains shown)
VH: QVQLVQSGAEVKKPGASVKVSCKASGYTFTGYNMNWVRQAPGQGLEWMGNIDPYYGNTNYNQKFKGRTTLTADTSTSTAYMELSSLRSDDTAVYYCARLGLQLYALDYWGQGTLVTVSS
VL: DIVMTQTPLSLPVTPGEPASISCRSSQSLVHSNANTYLHWYLQKPGQSPQLLIYKLTNRFFGVPDRFSGSGSGTDFTLKISRVEAEDVGVYYCSQSIHVPWTFGGGTKVEIK

Legend:
human CD40 (human) [1] = assay: ELISA
human CD40 (human) [2] = assay: ELISA (summary statement)

Row | Binder | binding (human CD40 (human) [1]) | binding (human CD40 (human) [2])
1 | B1 | binds | binds
2 | B2 | binds | 
3 | B3 | binds | binds
4 | B4 | binds | 

Results are given in words; binding and its absence hold for the method and conditions named. A result given as binding can be weak or reduced; the word gives no strength.
